Test results from PubChem BioAssay AID1671190 (National Center for Advancing Translational Sciences (NCATS), 2021).
The whole screen tested about 580,000 compounds, of which about 6,100 (1.1%) were called active. The shares of active, inactive and inconclusive entries below differ from those in the screen. The call rests on the fitted dose curve; in most records, active means well fitted inhibition curve with a large enough effect; inconclusive means small, poorly fitted or top-dose-only effect, or another doubt; inactive means no such curve, though single readings can be large or run the other way. Potencies beside an inconclusive call are fits to weak or partial responses and may not hold up.

By UniProt entry, the sequences of proteins in these tests, tags left out. Where a name states a change or a piece, a line headed by the entry shows the natural chain unless it says otherwise.
UniProt P18054: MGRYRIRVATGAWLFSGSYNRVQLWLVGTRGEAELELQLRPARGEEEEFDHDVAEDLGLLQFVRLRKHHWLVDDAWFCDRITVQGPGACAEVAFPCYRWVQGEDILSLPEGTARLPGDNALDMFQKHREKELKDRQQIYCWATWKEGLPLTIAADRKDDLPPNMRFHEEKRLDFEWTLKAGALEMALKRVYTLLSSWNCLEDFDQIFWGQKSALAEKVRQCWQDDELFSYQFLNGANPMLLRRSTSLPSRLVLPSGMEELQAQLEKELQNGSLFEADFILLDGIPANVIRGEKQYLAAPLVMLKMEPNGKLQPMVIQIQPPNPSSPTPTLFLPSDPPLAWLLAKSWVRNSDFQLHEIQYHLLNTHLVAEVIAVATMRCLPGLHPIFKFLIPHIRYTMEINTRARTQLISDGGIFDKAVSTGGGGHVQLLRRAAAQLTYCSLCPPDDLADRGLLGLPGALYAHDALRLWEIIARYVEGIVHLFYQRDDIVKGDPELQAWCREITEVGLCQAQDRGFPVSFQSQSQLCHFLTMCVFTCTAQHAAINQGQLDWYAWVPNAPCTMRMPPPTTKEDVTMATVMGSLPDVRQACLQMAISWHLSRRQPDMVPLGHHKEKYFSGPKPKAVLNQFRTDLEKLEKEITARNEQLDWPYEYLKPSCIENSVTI

Target: Polyunsaturated fatty acid lipoxygenase ALOX12 (Homo sapiens) (UniProt P18054)
Assay: Primary qHTS assay for inhibitors of human arachidonate 12S-lipoxygenase (ALOX12): Round 2
Conditions: purified 12hLO, xylenol orange hydroperoxide absorbance; series mostly up to 108 µM
Method in brief: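 Hydroperoxide product was detected by ferrous iron/xylenol orange as the 573 to 405 nm absorbance ratio. Arachidonic acid at 40 uM (final) was turned over for 30 min at room temperature by 150 nM human 12hLO, pH 7.0 Hepes buffer, after 15 min compound preincubation.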
Potency means the concentration at half of the fitted maximal effect.

Structure (SMILES)	Potency
C[N+](C)(CC#Cc1ccccc1)CC#Cc1ccccc1	inactive
CN(C)C(CNC(=O)c1cc2ccccc2oc1=O)c1ccccc1 (stereo not drawn)	inconclusive: 126 µM [inhibitor, single point]
COc1ccc(-c2ccc(=O)n(CCNC(=O)Cc3ccc(Br)cc3)n2)cc1	inactive
CCN(CC)C(=O)c1cc2c(s1)CCC(C(=O)NCc1c(C)nn(C)c1C)C2 (stereo not drawn)	inconclusive: 25.1 µM [inhibitor, partial curve, poor fit]
CC1CCc2c(sc(NC(=O)c3ccc(Cn4cc(Br)cn4)o3)c2C(N)=O)C1 (stereo not drawn)	inconclusive: 56.2 µM [inhibitor, single point]
NCCc1cccc(CN2CCC(OCc3ccccc3)CC2)c1	inconclusive: 5.01 µM [inhibitor, full curve, poor fit]
CCCCN1C(=O)/C(=C2/Sc3ccccc3N2C)S/C1=N\c1ncn[nH]1	inactive
COC(=O)c1cc(S(=O)(=O)N2CCN(c3ccc(F)cc3)CC2)c[nH]1	inactive
CCN1CCN(CCCNC(=O)c2ccc3c(c2)NC(=O)/C(=C\c2cccc(C)c2)S3)CC1	inconclusive: 44.7 µM [inhibitor, partial curve, poor fit]
C[C@@H]1CCCCO[C@H](CN(C)C(=O)NC2CCCCC2)[C@@H](C)CN([C@H](C)CO)C(=O)c2cc(NC(=O)c3ccccc3)ccc2O1	inconclusive: 100 µM [inhibitor, single point]
Cc1ccc(CNC2(Cc3cc(CO)on3)COC2)o1	inconclusive: 89.1 µM [inhibitor, full curve, poor fit]
O=C1c2ccccc2OC2(C=Cc3ccccc3O2)N1Cc1ccccc1 (stereo not drawn)	inactive
COc1cc(NC(=O)Cn2ncc(Cl)c(Cl)c2=O)c(C)cc1[N+](=O)[O-]	inactive
Cc1cc(C)n(C(=O)COc2ccccc2C)n1	inconclusive: 50.1 µM [inhibitor, partial curve, poor fit]
CCc1cccc(NS(=O)(=O)c2ccc3c(c2)-c2oncc2CO3)c1	inconclusive: 39.8 µM [inhibitor, partial curve, poor fit]
O=C(NCc1ccco1)NC1CCc2nnc(C3CC3)n2CC1 (stereo not drawn)	inactive
CCOC(=O)c1cc(-c2ccccc2)sc1NC(=O)C(C)OC(=O)c1cccnc1OCC (stereo not drawn)	inactive
CCC(C)(C(=O)NC1CCCCC1)N(C(=O)CNC(=O)c1ccccc1)c1ccccc1 (stereo not drawn)	inactive
COc1ccc(-c2nn(-c3ccccc3)cc2C2=NN(S(C)(=O)=O)C(c3cccs3)C2)cc1 (stereo not drawn)	inactive
CC1=NN(Cc2ccccc2)C(=O)C1	inactive
COCCNc1nc(NCc2cccc(OC)c2)c2sc(-c3ccccc3)cc2n1	inconclusive: 44.7 µM [inhibitor, partial curve, poor fit]
O=C(O)c1ccccc1C(=O)Nc1ccc(-n2nc(C(F)(F)F)cc2C(F)(F)F)cc1	inconclusive: 39.8 µM [inhibitor, partial curve, poor fit]

Among those listed so far, these contain two or more sulfur atoms:
Structure (SMILES)	Potency
CCCCN1C(=O)/C(=C2/Sc3ccccc3N2C)S/C1=N\c1ncn[nH]1	inactive
COc1ccc(-c2nn(-c3ccccc3)cc2C2=NN(S(C)(=O)=O)C(c3cccs3)C2)cc1 (stereo not drawn)	inactive

(listing goes on)

Structure (SMILES)	Potency
COC(=O)c1ccccc1NC(=O)c1ccc2nc(Cc3ccccc3)oc2c1	inactive
O=C1CC(c2ccccc2)N(C(=O)CNS(=O)(=O)c2cccs2)CCCCCCN1 (stereo not drawn)	inconclusive: 25.1 µM [inhibitor, full curve]
O=C(NCc1ccc(Cl)cc1)c1ccc(-c2ccc(F)c(F)c2)c2ccoc12	inconclusive: 126 µM [inhibitor, single point]
CCOc1ccc(-c2cc(-c3nc(-c4cc(OC)c(OC)c(OC)c4)no3)[nH]n2)cc1Cl	inconclusive: 126 µM [inhibitor, single point]
Cc1ccc(NC(=O)CCNc2cnc3cnccn23)cc1F	active: 50.1 µM
C[C@H]1CN([C@@H](C)CO)C(=O)Cc2cc(NC(=O)CCC(F)(F)F)ccc2O[C@H]1CN(C)Cc1ccc(-c2ccccc2)cc1	inconclusive: 56.2 µM [inhibitor, partial curve, poor fit]
CC1=CC(C)(C)[N+](C)(C)c2ccccc21	inconclusive: 50.1 µM [inhibitor, partial curve, poor fit]
O=C(O)C/C(=C/c1ccc(Br)cc1)c1nc2ccccc2s1	active: 31.6 µM
CC(=O)c1ccc(C(=O)N2CC=C(c3ccccc3)CC2)s1	inconclusive: 44.7 µM [inhibitor, partial curve, poor fit]
Cc1noc(C)c1C(=O)N1Cc2ccccc2CC2(CCN(C)C2)C1 (stereo not drawn)	inconclusive: 44.7 µM [inhibitor, partial curve]
COc1ccc(CNC(=O)c2ccc(-n3ccnc3)c3ccoc23)cc1OC	inconclusive: 44.7 µM [inhibitor, partial curve, poor fit]
O=C(CC1CCCN(c2cn[nH]c(=O)c2)C1)N1CCCCC1 (stereo not drawn)	inconclusive: 39.8 µM [inhibitor, partial curve, poor fit]
CCCC(=O)NCCCc1nc2ccccc2n1C	inactive
O=C(Nc1ccc(S(=O)(=O)Nc2ncccn2)cc1)C1=COCCO1	inactive
CC(C)NC(=O)CNC(=O)c1nc2ccccc2c(=O)[nH]1	inactive
CCOC(=O)c1c(C)[nH]c(O)c1C=Nc1ccc(Cl)cc1	inconclusive: 3.98 µM [inhibitor, full curve]
COc1ccc(C2NC(=O)NC(C)=C2C(=O)Nc2cccc(C)c2C)cc1 (stereo not drawn)	inconclusive: 126 µM [inhibitor, single point]
CCNC(=O)NC(=O)COC(=O)CCCSc1nc2ccccc2[nH]1	inconclusive: 25.1 µM [inhibitor, partial curve, poor fit]
CCOC(=O)C1=C(C)NC(C)=C(C(=O)OC)C1c1cccc(Cl)c1Cl (stereo not drawn)	inconclusive: 39.8 µM [inhibitor, partial curve, poor fit]
CCCOc1ccc(C(=O)N2CC3(CC(c4cccc(NC(=O)[C@@H]5CCC(=O)N5)c4)=NO3)C[C@H]2C(=O)NC2(C(N)=O)CC2)cc1 (stereo partly drawn)	inconclusive: 100 µM [inhibitor, single point]
O=C(CCSCc1cccc(F)c1)NCc1ccc(F)cc1	inconclusive: 50.1 µM [inhibitor, partial curve, poor fit]
